From PubChem BioAssay AID2685 (National Center for Advancing Translational Sciences (NCATS), 2010)
The campaign covered roughly 320,000 compounds. About 2,100 (0.66%) were called active. Inconclusive results, whose numbers are uncertain, are shown with a selection of clear calls. Calls follow the shape of the dose curve; as a rule, active = well fitted inhibition curve with a large enough effect in the signal ratio, with a control signal flat (not every such curve was filed as active); inconclusive = small, poorly fitted or top-dose-only effect, or effect the other way, or a change in a side signal; inactive = flat fitted curve, though single readings scatter; the % refers to the signal ratio. Potencies of inconclusive entries are doubtful fits and often do not repeat.

Test: qHTS Assay for Lipid Storage Modulators in Drosophila S3 Cells
Settings: BODIPY lipid droplet fluorescence, 18-24 h, cells fed with added oleic acid; lipid storage change, negative = inhibition: at 46.1 µM (top of the series) unless noted
In short: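 Drosophila S3 cells loaded with oleic acid (400 uM, as added) and compounds at several concentrations; lipid droplets imaged by 488-nm laser-scanning cytometry, 500–530 nm intensity and object ratio to cell channel. Percent activity normalized to 20 uM Triacsin C.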
% is scaled to controls: 0 for no effect and ±100 for the full control effect; potency is read from the fitted curve at half-maximal effect.

Row | Compound | Potency | lipid storage change, negative = inhibition
1 | Cn1c(CCn2ccccc2=O)nc2cc(NC(=O)COc3ccccc3)ccc21 | inconclusive: 4.61 µM [activator, full curve, poor fit] | –
2 | COc1cccc(-c2cc(=O)c3cc(NC(=O)c4ccc(Cl)cc4)ccc3[nH]2)c1 | – | inconclusive: 25.2%
3 | CCOC(=O)c1oc2ccccc2c1CN1CCOCC1 | – | inconclusive: -9.71%
4 | O=C(COc1ccc(Br)cc1)Nc1ccc2oc(=O)ccc2c1 | inconclusive: 1.03 µM [activator, full curve] | –
5 | COc1ccc(-c2noc(CN(C)C(=O)c3ccc4c(c3)OCO4)n2)cc1OC | – | inconclusive: 139%
6 | CCOC(=O)c1cc(-c2ccc(Cl)s2)[nH]n1 | – | inconclusive: 4.86%
7 | O=S(=O)(Nc1ccc(S(=O)(=O)Nc2nccs2)cc1)c1ccc2c(c1)OCCO2 | – | inconclusive: -1.14%
8 | O=C(CNC(=O)/C(=C\c1ccccc1)NC(=O)c1ccc(Br)cc1)OCc1ccccc1 | – | inconclusive: -9.75%
9 | CC(NCc1ccc(OCc2ccc(Cl)cc2)cc1)C(O)c1ccccc1 (configuration not stated) | – | inconclusive: -100%
10 | O=C(Nc1ccc(OC(F)F)c(Cl)c1)c1cccc(OC(F)F)c1 | inconclusive: 6.51 µM [activator, single point] | –
11 | Cc1nc2ncnn2c(Nc2ccc3c(c2)OCO3)c1Cc1ccccc1 | – | inconclusive: -30.8%
12 | CCOc1ccc(CNc2ccc3c(c2)ncn3C)cc1 | – | inconclusive: -71.1%
13 | Cc1ccc(OCC(=O)N2CCC3(CC2)CC(=O)c2ccccc2O3)cc1 | – | inconclusive: 37.5%
14 | CCOc1cc(/C=N/NC(=O)CN(CCc2ccccc2)S(=O)(=O)c2ccc(NC(C)=O)cc2)ccc1O | – | inconclusive: 35.1%
15 | O=C(c1ccco1)N1CCN(C(=O)c2cc3sccc3n2Cc2ccccc2)CC1 | – | inconclusive: -31%
16 | CCc1cccc(CC)c1-n1c(SCC(=O)N2CCc3ccccc3C2)nnc1-c1cccnc1 | active: 16.4 µM | –
17 | COc1ccc([N+](=O)[O-])cc1NC(=O)c1cn(-c2ccc(C)c(C)c2)c(=O)c2ccccc12 | – | inconclusive: 57.2%
18 | CC1CCCCN1CC(=O)Nc1ccc2c(c1)OC(F)(F)O2 (configuration not stated) | – | inconclusive: 10%
19 | CCOC(=O)CSc1nc(N)c(C#N)c(-c2ccc(OCC)cc2)c1C#N | – | inconclusive: -170%
20 | CCCC(=O)Nc1nnc(-c2ccc(Cl)s2)o1 | – | inconclusive: -3.81%
21 | Cc1cc(NC(=O)COC(=O)C2CC(=O)N(c3ccc(Br)cc3)C2)no1 (configuration not stated) | inconclusive: 0.058 µM [falling, full curve, poor fit] | –
22 | O=C(O)CC(c1cccc2ccccc12)N1Cc2ccccc2C1=O (configuration not stated) | inconclusive: 6.51 µM [falling, single point] | –
23 | CCOC(=O)CSc1ncc(OC)c(Sc2ccc(OC)cc2)n1 | – | inconclusive: 10.6%
24 | CC1=Nc2ccc3ccccc3c2C1(C)C | inconclusive: 0.103 µM [rising, full curve, poor fit] | –
25 | O=C(O)C1CCN(C(=O)c2ccccc2Cl)CC1 | active: 18.4 µM | –
26 | COc1ccccc1N1CCN(C(c2ccc(N(C)C)cc2)c2nnnn2CCc2ccccc2)CC1 (configuration not stated) | inconclusive: 20.6 µM [falling, single point] | –

Quoted from the results shown for reference:
Row | Compound | Potency | lipid storage change, negative = inhibition
5 | COc1ccc(-c2noc(CN(C)C(=O)c3ccc4c(c3)OCO4)n2)cc1OC | – | inconclusive: 139%
6 | CCOC(=O)c1cc(-c2ccc(Cl)s2)[nH]n1 | – | inconclusive: 4.86%

Additional compounds:

Row | Compound | Potency | lipid storage change, negative = inhibition
27 | COC(C[C@H]1O[C@@H]1[C@@H](O)[C@H](C)OCc1ccccc1)OC | – | inconclusive: 8.31%
28 | CCn1c(CC(=O)Nc2ccc(C)cc2)n[nH]c1=S | – | inconclusive: 6.33%
29 | Cc1ccc(C)c(S(=O)(=O)C(C#N)c2nc3ccccc3nc2N2CCCC2)c1 (configuration not stated) | – | inconclusive: 19.8%
30 | O=[N+]([O-])c1ccc(Cl)c(S(=O)(=O)N2CCCCCC2)c1 | – | inconclusive: -27.8%
31 | CCn1nnc2cc(C(=O)Nc3cccc(S(=O)(=O)N(C)C)c3)ccc21 | – | inconclusive: 7.55%
32 | COC(=O)c1ccccc1NC(=O)C1CCCN(S(=O)(=O)c2ccc(OC)cc2)C1 (configuration not stated) | – | inconclusive: 4.8%
33 | CCOc1c(Cl)cc(CNc2nnnn2C)cc1OC | – | inconclusive: 27%
34 | Cc1ccc(CNC(=O)/C(C#N)=C\c2ccc(N(C)C)cc2)cc1 | inconclusive: 29.1 µM [falling, single point] | –
35 | CC(=O)N1CCN(CC(=O)NC(=O)Nc2ccc3c(c2)OCCO3)CC1 | – | inconclusive: -74.1%
36 | CCOC(=O)c1cnc2c(N=Nc3ccccc3)c(N)nn2c1N | – | inconclusive: -21.3%
37 | CC(C)CCn1c(SCC(=O)c2ccccc2)nc2c1c(=O)[nH]c(=O)n2C | – | inconclusive: -18.5%
38 | Cc1ccc(-c2noc(CNC(=O)c3ccc4c(c3)OCO4)n2)cc1 | – | inconclusive: -15.1%
39 | CN1CCN(C(=O)NC2CCCN2S(=O)(=O)c2ccc(Cl)cc2)CC1 (configuration not stated) | – | inconclusive: -11.1%
40 | N/C(=N\OC(=O)CCCOc1ccccc1)c1ccc([N+](=O)[O-])cc1 | – | inconclusive: -20.3% [at 9.22 µM]
41 | O=C(CNC(=S)N(Cc1ccccc1Cl)C1CCCC1)NCCCN1CCOCC1 | – | inconclusive: 21.7%
42 | O=C1CC(SC(=Nc2ccccc2)Nc2ccccc2)C(=O)N1c1ccc(Cl)c(Cl)c1 (configuration not stated) | inconclusive: 2.31 µM [activator, partial curve] | –
43 | COc1cccc(-c2nc(CS(=O)(=O)CC(=O)NC3CCC(C)CC3)c(C)o2)c1 (configuration not stated) | – | inconclusive: -44.4%
44 | CCCn1c(C(C)Nc2nc(-c3ccc(C)cc3)cs2)nc2cc(Cl)c(Cl)cc21 (configuration not stated) | inconclusive: 16.4 µM [activator, partial curve] | –
45 | O=C(CCNC(=O)N1CC(=O)Nc2ccccc21)NCc1cccc(Cl)c1 | – | inconclusive: -2.67%
46 | COc1cc(/C=C2/C(=O)ON=C2C)cc(Cl)c1O | – | inconclusive: -29.4%
47 | O=C(O)c1ccccc1-c1csc(-c2ccccc2)n1 | – | inconclusive: 14.6%
48 | S=C(NCCc1ccc(Cl)cc1)NC1CCCCC1 | – | inconclusive: -47.3%
49 | CCNC(=O)C1CC(=O)N(Cc2ccc3c(c2)OCO3)C(=Nc2ccc(OCC)cc2)S1 (configuration not stated) | inconclusive: 0.58 µM [rising, single point] | –
50 | Cc1c(C(=O)NCCc2ccc(Cl)cc2)sc2nc3n(c(=O)c12)CCC3 | – | inconclusive: -52.6%
51 | CN(c1ccccc1)S(=O)(=O)c1ccc(C(=O)NCCc2ccc(F)cc2)cc1 | – | inconclusive: -37.4%
52 | CC(Sc1nnc(N)s1)C(=O)Nc1ccc2c(c1)OCO2 (configuration not stated) | – | inconclusive

Row | Compound | Potency | lipid storage change, negative = inhibition
53 | Cc1nc2c(-c3ccccc3)c(C)nn2c(C)c1CCC(=O)N1CCOCC1 | – | inconclusive: -105%
54 | Cc1ccccc1C(=O)Nc1ccnn1C1CCN(C2CCSCC2)CC1 | – | inconclusive: 14.9%
55 | O=C(/C=C/c1ccc(Br)cc1)c1ccco1 | inconclusive: 29.1 µM [falling, single point] | –
56 | Cc1cc(NS(=O)(=O)c2ccc(NC(=S)NC(=O)/C=C/c3ccccc3)cc2)no1 | inconclusive: 6.51 µM [falling, partial curve, poor fit] | –
57 | Cc1c(C(=O)NCc2ccccc2F)oc2ccccc12 | inconclusive: 0.58 µM [falling, partial curve, poor fit] | –
58 | CCCCn1nnnc1SCC(=O)N(CC)CC | inconclusive: 2.91 µM [falling, partial curve, poor fit] | –
59 | COc1ccccc1NC(=O)c1cccc(S(=O)(=O)N2CCN(Cc3ccccc3)CC2)c1 | inconclusive: 0.92 µM [activator, partial curve] | –
60 | O=C(c1cc(-c2ccccc2)n[nH]1)N1CCc2c([nH]c3ccccc23)C1c1ccccn1 (configuration not stated) | – | inconclusive: -42.8%
61 | Cc1ccc2nc(NC(=O)C3CCCN3C(=O)OC(C)(C)C)sc2c1 (configuration not stated) | – | inconclusive: -3.06%
62 | Cc1ccc(-c2nc3ncccc3o2)cc1NC(=O)C(C)(C)C | inconclusive: 0.58 µM [falling, single point] | –
63 | CCC1Oc2ccc(C)cc2N(CC(=O)N2CCCC2)C1=O (configuration not stated) | inconclusive: 18.4 µM [activator, partial curve] | –
64 | O=C(O)c1ccc(NC(=O)c2ccccc2Br)c(NC(=O)c2ccccc2Br)c1 | – | inconclusive: -19.3%
65 | O=C(Nc1cc(C(F)(F)F)ccc1Cl)C(NCc1ccccc1)c1ccccc1 (configuration not stated) | – | inconclusive: -48.3%
66 | CC(=O)Cc1nsc(NC(=O)c2ccc(-c3ccc(Cl)cc3Cl)o2)n1 | – | inconclusive: -11.1%
67 | CCOc1ccc(CCNC(=O)CS(=O)Cc2nc(-c3ccc(C)cc3)oc2C)cc1 (configuration not stated) | – | inconclusive: 21.8%
68 | COC(=O)C1=CN(c2cccc(C)c2)C=C(C(=O)OC)C1c1cc(OC)c(O)c([N+](=O)[O-])c1 | active: 25.9 µM | –
69 | Cc1ccccc1-n1cc(CNC(=O)C2CCC(=O)N(C3CC3)C2)cn1 (configuration not stated) | inconclusive: 29.1 µM [activator, single point] | –
70 | COc1ccc(C(=O)Nn2cnnc2)cc1OC | – | inconclusive: 33.8%
71 | O=C(Nc1cnn(Cc2c(Cl)cccc2Cl)c1)C(c1ccccc1)c1ccccc1 | – | inconclusive: 2.8%
72 | CCOc1ccc(N(CCCCO)C(=S)NC(=O)c2ccc(C)c(Br)c2)cc1 | – | inconclusive: -46% [cytotoxic] [at 0.369 µM]
73 | Cc1cc(CN2CCCC(N3CCc4ccccc4C3)C2)cc(C)c1O (configuration not stated) | – | inactive
74 | CC1CCc2sc(C(=O)OCC(=O)NC(C)C)cc2C1 (configuration not stated) | inconclusive: 29.1 µM [cytotoxic, single point] | –
75 | Cc1cc(C(=O)COC(=O)c2csc3c2CCCC3)c(C)n1C | inconclusive: 0.116 µM [activator, full curve, poor fit] | –
76 | CCC(=O)N1CN(S(=O)(=O)c2ccc(C)cc2)CC1C (configuration not stated) | – | inconclusive: 11.7%
77 | O=C(CCNS(=O)(=O)c1cccc2nonc12)NCc1cccs1 | inconclusive: 7.31 µM [activator, partial curve] | –

Some of the entries so far, comma-delimited:
Row,Compound,Potency,"lipid storage change, negative = inhibition"
34,Cc1ccc(CNC(=O)/C(C#N)=C\c2ccc(N(C)C)cc2)cc1,"inconclusive: 29.1 µM [falling, single point]",–
35,CC(=O)N1CCN(CC(=O)NC(=O)Nc2ccc3c(c2)OCCO3)CC1,–,inconclusive: -74.1%
